These results are taken from patent US20260055187A1.

Sequences of proteins named here, by UniProt entry; tags and fusion partners are left off. A change or cut given only in a name is not applied to a line headed by its entry. A line that says so, or that is headed by a name, gives the form on record, which may keep a tag or linker. Residues count along the entry.
UniProt Q15116: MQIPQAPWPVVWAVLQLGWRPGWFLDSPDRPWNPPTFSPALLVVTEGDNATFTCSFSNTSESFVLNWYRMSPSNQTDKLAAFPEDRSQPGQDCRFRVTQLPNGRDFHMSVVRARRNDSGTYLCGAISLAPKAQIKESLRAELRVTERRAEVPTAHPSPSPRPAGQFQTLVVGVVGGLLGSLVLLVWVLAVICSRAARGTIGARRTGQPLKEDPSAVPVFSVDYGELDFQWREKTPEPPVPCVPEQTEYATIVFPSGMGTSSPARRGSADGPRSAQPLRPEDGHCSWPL
PD-1 expressed on activated T cells: residues 25-288 of Q15116
His-tagged extracellular domain of human PD-1: residues 25-170 of Q15116

These are yes or no findings as the source states them, for the method shown. Some results given as binding are weak or reduced against the parent protein; the word gives no strength.

B1: PD-1 antibody 1-28 (antibody, V domains shown)
VH: EVQLVQSGAEVKKPGASVKVSCKASGYRFTSYGISWVRQAPGQGLEWMGWISAYNGNTNYAQKLQGRVTMTTDTSTNTAYMELRSLRSDDTAVYYCARDADYSSGSGYWGQGTLVTVSS
VL: SYELTQPPSVSVSPGQTARITCSGDALPKQYAYWYQQKPGQAPVMVIYKDTERPSGIPERFSGSSSGTKVTLTISGVQAEDEADYYCQSADNSITYRVFGGGTKVTVL
B2: PD-1 antibody 1-33 (antibody, V domains shown)
VH: QVQLVQSGAEVKKPGASVRVSCKASGYTLTSYYIHWVRQAPGQGLEWMGIINPRGATISYAQKFQGRVTMTRDTSTSTVYMELRNLKSEDTALYYCATAGIYGFDFDYWGRGTLVTVSS
VL: QSALTQPASVSGSPGQSITISCTGTSNDVGGYNYVSWYQHHPGKAPKLIIYDVTNRPSGVSDRFSGSKSGNTASLTISGLLAEDEGDYYCSSYTIVTNFEVLFGGGTKLTV
B3: PD-1 antibody 3H4 (antibody, V domains shown)
VH: QIQLQQSGPELVKPGASVKISCKASGYTFTDYYINWVKQKPGQGLEWIGWIYPGSVNTKYNEKFRGKATLTVDTSSSTAYIQLSGLTSEDTAVYFCARYSNWFFDVWGAGTAVTVS
VL: DIVMTQSPSSLSASLGERVSLTCRASQEISGYLSWLQQKPDGTIKRLIYAASTLDSGVPKRFSGSRSGSDYSLSISSLESEDFADYYCLQYASYPYTFGGGTKLEIKR
B4: PD-1 antibody 1-17 (antibody, V domains shown)
VH: QVQLQESGPGVVKPSGTLSLTCAISGGSIGSGGSIRSTRWWSWVRQSPGKGLEWIGEIYHSGSTNYNPSLKSRVTISLDKSRNHFSLRLNSVTAADTAVYYCARQDYGDSGDWYFDLWGKGTMVTVSS
VL: NFMLTQPHSVSESPGKTVTISCTRSSGSIASNSVQWYQQRPGSSPTTVIYEDNQRPSGVPDRFSGSIDSSSNSASLTVSGLKTEDEADYYCQSSDSSAVVFGSGTKLTVL

For the first test, the target named is PD-1 expressed on activated T cells (UniProt Q15116). As to the kind of experiment: flow cytometry on activated T cells. Background: A flow cytometer gives signals particle by particle.
As to B1, the binding result is given as “binds”.
In the case of B2, the binding result was “binds”.
For B3, the binding result was “binds”.
Consider B4, for which the binding result is given as “binds”.

In another test the target is His-tagged extracellular domain of human PD-1 (human) (UniProt Q15116). As to the kind of experiment: ELISA, His-tagged extracellular domain on plate. (In general: An ELISA detects its analyte on a solid surface through an enzyme-linked reagent.)
Take B3: the binding result is reported as “binds”.

The target in another test is PD-1 expressed on activated T cells (UniProt Q15116). As to the kind of experiment: flow cytometry on activated T cells, PE anti-human secondary.
B1: the binding result is reported as “binds”.
As for B2, the binding result is “binds”.
Take B3: the binding result is “binds”.
In the case of B4, the binding entry is given as “binds”.
